The list shows a part of the results.

Amino acid sequences for entries named in this document (tags omitted).
UniProt Q0JBA9, entry or part of it: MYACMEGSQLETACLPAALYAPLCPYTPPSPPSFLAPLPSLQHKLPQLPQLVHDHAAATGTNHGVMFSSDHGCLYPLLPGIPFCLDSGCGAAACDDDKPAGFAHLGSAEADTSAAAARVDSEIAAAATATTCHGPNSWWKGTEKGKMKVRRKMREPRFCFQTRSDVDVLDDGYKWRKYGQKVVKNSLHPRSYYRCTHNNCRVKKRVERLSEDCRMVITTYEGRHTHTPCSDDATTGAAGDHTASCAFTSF

The experiment deals with OsWRKY34 (Oryza sativa, UniProt Q0JBA9 1-250). The experiment can be described thus: protein-binding microarray (RPBM); PBS, 2% BSA, 51.3 ng/ul salmon testes DNA, 50 uM zinc acetate, 200 nM TF, 25 C, 1 h; high values mean tight binding. As to conditions: protein: recombinant; tags: N-terminal polyhistidine and DsRed monomer fusion (pET32a); label: CyDye5-dUTP incorporated in the synthesized complementary strand; 3' TTTTT single-stranded linker to array surface; dsDNA, one strand shown. In short, it runs like this:
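Transcription factors were made in E. coli BL21-CodonPlus as N-terminal fusions to a polyhistidine tag and DsRed, then purified on Ni–NTA. After primer extension with Cy5-dUTP and blocking with 2% BSA, a custom Agilent array was exposed for 1 h at 25 °C to 200 nM protein in PBS, 2% BSA, salmon testes DNA and 50 µM zinc acetate. Washed arrays were scanned on an Axon 4000B, and the binding signal is per-feature fluorescence intensity in arbitrary units.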
For the sequence “TTTAAATAAAACGAATGGTCAAACGTTGATAAAAAGTCAACGGAGTCACCTAGTGCAG”, the binding signal is 13300 fluorescence intensity (a.u.).

For the sequence “TCCTCTCTGCTCTGCTTCCCCTGTCCACCACTATTAAACCCGGAGTCACCTAGTGCAG”, the binding signal is 8100 fluorescence intensity (a.u.).

As to “CCACGCCTCTGCCTGCCTTGGGTCCCAACTCCCAATCACCCGGAGTCACCTAGTGCAG”, the binding signal is 10100 fluorescence intensity (a.u.).

Regarding “CCCTTCACTTTGATTCTTCCTGTCTACCTAGGTTAAAAAACGGAGTCACCTAGTGCAG”, the binding signal was 9550 fluorescence intensity (a.u.).

With “GTGGAAAGACGAGGTCTCAAGCTTTATCCCGCCTTCAATCCGGAGTCACCTAGTGCAG”, the binding signal was 8050 fluorescence intensity (a.u.).

In the case of “TTTTTCTACAGTTCTTTGCCATCGTTCAAACCTTCGCCACCGGAGTCACCTAGTGCAG”, the binding signal is 8770 fluorescence intensity (a.u.).

With “CCACTTTGTCCTCTTACCCCGCCACCACCGCCGCCTATATCGGAGTCACCTAGTGCAG”, the binding signal was 11300 fluorescence intensity (a.u.).

Turning to “TTTCCGTCACCGTTTTAATCCCGATCGTATATGTTCAAATCGGAGTCACCTAGTGCAG”, the binding signal is 8510 fluorescence intensity (a.u.).

As for “TTATTTTCCCATTTCTATCTCCTCGAGTCTTATCACCTGACGGAGTCACCTAGTGCAG”, the binding signal was 11000 fluorescence intensity (a.u.).

Consider “GCTTTGGAACTCCTTTAGATTATAATCCAACTCAATTCAACGGAGTCACCTAGTGCAG”, for which the binding signal is 8260 fluorescence intensity (a.u.).

On to “CCTAAACCCTAGCCCTTTTAGTTGTTTATCGTTTTCTTGTCGGAGTCACCTAGTGCAG”, for which the binding signal is 8580 fluorescence intensity (a.u.).

With “AAATTGGATGTGCCTACTTCACGCTTTAAATTTCAATAATCGGAGTCACCTAGTGCAG”, the binding signal is 9780 fluorescence intensity (a.u.).

For “ACTCCATATCGCTTCGCGATTTTTTGTTGACCAAATCAATCGGAGTCACCTAGTGCAG”, the binding signal is 9610 fluorescence intensity (a.u.).

“GACTCGTTCCTTTGTCCTAATCATTGGTCTTTACTCAGTTCGGAGTCACCTAGTGCAG”: the binding signal is 9040 fluorescence intensity (a.u.).

For “ATCCCGGCCTGCTCTTGCGCTTTGACTTTTTGTAGAGTTTCGGAGTCACCTAGTGCAG”, the binding signal was 18200 fluorescence intensity (a.u.).

For “ATTGGACTTGCGTTGACCTTCAAGCCGTTCCTGGCAATACCGGAGTCACCTAGTGCAG”, the binding signal is 11600 fluorescence intensity (a.u.).

Regarding “ACGCCTTGTCTGCTGTATTAATCAGTTTTCTCCATTTGGACGGAGTCACCTAGTGCAG”, the binding signal is 9850 fluorescence intensity (a.u.).

Regarding “TGTTGGAATAGTTGTAGCAGTATGAGAAGTTTTGATGTTTCGGAGTCACCTAGTGCAG”, the binding signal is 8280 fluorescence intensity (a.u.).

As to “TGTCCTTGTCCATCGCTATCTTCAGGCCGCCAAGAAAGTCCGGAGTCACCTAGTGCAG”, the binding signal is 8120 fluorescence intensity (a.u.).

As for “CCACGCCGTCGCCGTCACCTCTCATCGTGCCTTGGACGCCCGGAGTCACCTAGTGCAG”, the binding signal was 11000 fluorescence intensity (a.u.).

For the sequence “CACTCACCATCTTCTTGTCTTCTCTCTCTCCTCTCATCCTCGGAGTCACCTAGTGCAG”, the binding signal was 10000 fluorescence intensity (a.u.).

Turning to “TATGCGGGGATGGGGATGGTGACGTTCGATTTTTTCTGCTCGGAGTCACCTAGTGCAG”, the binding signal was 10000 fluorescence intensity (a.u.).

Take “AGTATTACCATCGTCCTTAAATAAGTACATTTTTAGCACACGGAGTCACCTAGTGCAG”: the binding signal is 9320 fluorescence intensity (a.u.).

For the sequence “TGGTTTTATGCTCTCCAGCTACGTTAGTATTTTTACAGCACGGAGTCACCTAGTGCAG”, the binding signal is 10100 fluorescence intensity (a.u.).

With “CTCATGGCCATTTACTTGTTCTTCTTCCTGCTCCATGCTTCGGAGTCACCTAGTGCAG”, the binding signal was 9500 fluorescence intensity (a.u.).

In the case of “GTGGGCGGGGTGTATAGTAGTATAGTTTTAGAGCCGGTGACGGAGTCACCTAGTGCAG”, the binding signal was 12700 fluorescence intensity (a.u.).

On to “GGTTCCAATTCGTCGCCTGATACTCCGATTCGAGTTCTTGCGGAGTCACCTAGTGCAG”, for which the binding signal was 12700 fluorescence intensity (a.u.).

Take “TTCATCTCATCTCTCACGCCGTCTCCGTTCACATCCTTATCGGAGTCACCTAGTGCAG”: the binding signal was 14100 fluorescence intensity (a.u.).

With “TTACTATTTACCCAAAATTATTTCATGAAATACTAATTCACGGAGTCACCTAGTGCAG”, the binding signal is 8740 fluorescence intensity (a.u.).

Consider “ACAGCAAACAAACGTAACACCTTAACACGTCATGCAGTTTCGGAGTCACCTAGTGCAG”, for which the binding signal is 9020 fluorescence intensity (a.u.).

As to “ACTCCCGCCTCGACCACGTCCTCGCCCGCGACGACATCCCCGGAGTCACCTAGTGCAG”, the binding signal is 8100 fluorescence intensity (a.u.).

For the sequence “GGGGTGCTGTTTGTGTTTGTGTGTAGTTTTTGCCAATCCACGGAGTCACCTAGTGCAG”, the binding signal was 14900 fluorescence intensity (a.u.).

Turning to “ACACTGTCCATCAGATCCTGCCAGCTTGATCCTGGCCGTCCGGAGTCACCTAGTGCAG”, the binding signal was 10400 fluorescence intensity (a.u.).

As to “ATCAACGACTATTCAGATAGCCAACAAGTTGACCTTGACCCGGAGTCACCTAGTGCAG”, the binding signal was 8180 fluorescence intensity (a.u.).

As to “TTTCTTGGTCTTTGGGTTAAATGTGGTTATGCCTTATATTCGGAGTCACCTAGTGCAG”, the binding signal was 8260 fluorescence intensity (a.u.).

With “CGCAGCTTTTTTATTTAAAATAATCCCGTACGTTTTTTTTCGGAGTCACCTAGTGCAG”, the binding signal was 9000 fluorescence intensity (a.u.).

On to “TTGTGTTTAGATCCAGGGGTCAAAAGTTTTGACGTGTCACCGGAGTCACCTAGTGCAG”, for which the binding signal was 9220 fluorescence intensity (a.u.).

For the sequence “AAATGCTTTTGTTCCTGTGACTCTAACCACCTACATTTAACGGAGTCACCTAGTGCAG”, the binding signal was 9570 fluorescence intensity (a.u.).

Turning to “TCCCGCACCACGCGCGCGCCGCTGAGATCCTCTTCGAGCACGGAGTCACCTAGTGCAG”, the binding signal is 11700 fluorescence intensity (a.u.).

As to “CCTTTTTCTTAACTTCCAACACACTAGGGATCCAGAACACCGGAGTCACCTAGTGCAG”, the binding signal is 8380 fluorescence intensity (a.u.).

Regarding “AGTCCGCCTCGGTCTCTTCTTCTTCTTCTTCCCAATTTGCCGGAGTCACCTAGTGCAG”, the binding signal is 11300 fluorescence intensity (a.u.).

As to “TGCATGCCCTGCTTTATCTTCTTCTTCTTCTGGTCAAATACGGAGTCACCTAGTGCAG”, the binding signal was 10400 fluorescence intensity (a.u.).

The values above are taken from publication PMC7819943, “Rice protein-binding microarrays: a tool to detect cis-acting elements near promoter regions in rice”.
